What all share (test): DAPPL (digital affinity profiling via proximity ligation, sequencing)
Details in all cases: 10 mM Tris-HCl pH 7.5, 50 mM NaCl, 1 mM DTT, 4% glycerol, room temperature, 30 min; GST-TFs on glutathione beads, 16-mer random dsDNA library, 0.1% …; high values mean tight binding; double strand, one strand shown; scale: fold enrichment (6-mer frequency, TF over GST control)

For one experiment, the target named is T1, ELK1 (UniProt P19419).
T1 sequence: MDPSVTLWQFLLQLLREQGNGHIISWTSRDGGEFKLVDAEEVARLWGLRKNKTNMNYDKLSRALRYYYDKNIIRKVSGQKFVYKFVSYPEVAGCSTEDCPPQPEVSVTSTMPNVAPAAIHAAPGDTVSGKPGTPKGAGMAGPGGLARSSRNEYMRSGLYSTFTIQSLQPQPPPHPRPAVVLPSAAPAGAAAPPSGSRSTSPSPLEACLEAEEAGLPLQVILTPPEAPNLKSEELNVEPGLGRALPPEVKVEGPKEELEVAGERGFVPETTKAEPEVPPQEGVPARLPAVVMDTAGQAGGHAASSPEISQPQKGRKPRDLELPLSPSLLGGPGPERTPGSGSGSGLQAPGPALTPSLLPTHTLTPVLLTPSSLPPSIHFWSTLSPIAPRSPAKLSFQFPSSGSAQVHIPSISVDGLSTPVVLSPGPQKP

The next experiment has as its target T2, ELK3 (UniProt P41970).
T2 sequence: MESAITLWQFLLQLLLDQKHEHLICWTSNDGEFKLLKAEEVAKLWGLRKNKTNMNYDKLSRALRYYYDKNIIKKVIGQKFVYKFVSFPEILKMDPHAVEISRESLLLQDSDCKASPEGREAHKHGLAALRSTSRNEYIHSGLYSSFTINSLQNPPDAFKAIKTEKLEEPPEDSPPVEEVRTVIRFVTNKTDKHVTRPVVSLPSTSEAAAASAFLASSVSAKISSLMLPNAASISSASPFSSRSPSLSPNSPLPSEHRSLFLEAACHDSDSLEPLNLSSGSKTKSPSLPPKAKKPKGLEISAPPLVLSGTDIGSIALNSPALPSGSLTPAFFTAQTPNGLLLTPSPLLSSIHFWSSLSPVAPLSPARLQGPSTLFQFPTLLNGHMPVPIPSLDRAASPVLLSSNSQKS

In a further experiment the target is T3, SPIC (UniProt Q8N5J4).
T3 sequence: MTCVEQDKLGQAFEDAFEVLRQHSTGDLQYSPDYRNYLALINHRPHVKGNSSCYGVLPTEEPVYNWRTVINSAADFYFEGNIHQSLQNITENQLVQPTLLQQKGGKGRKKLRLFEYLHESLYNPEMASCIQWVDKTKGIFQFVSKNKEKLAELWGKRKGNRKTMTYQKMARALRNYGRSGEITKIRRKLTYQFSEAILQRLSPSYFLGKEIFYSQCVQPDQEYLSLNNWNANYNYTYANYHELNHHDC

In the next experiment the target is T4, ETS2 (UniProt P15036).
T4 sequence: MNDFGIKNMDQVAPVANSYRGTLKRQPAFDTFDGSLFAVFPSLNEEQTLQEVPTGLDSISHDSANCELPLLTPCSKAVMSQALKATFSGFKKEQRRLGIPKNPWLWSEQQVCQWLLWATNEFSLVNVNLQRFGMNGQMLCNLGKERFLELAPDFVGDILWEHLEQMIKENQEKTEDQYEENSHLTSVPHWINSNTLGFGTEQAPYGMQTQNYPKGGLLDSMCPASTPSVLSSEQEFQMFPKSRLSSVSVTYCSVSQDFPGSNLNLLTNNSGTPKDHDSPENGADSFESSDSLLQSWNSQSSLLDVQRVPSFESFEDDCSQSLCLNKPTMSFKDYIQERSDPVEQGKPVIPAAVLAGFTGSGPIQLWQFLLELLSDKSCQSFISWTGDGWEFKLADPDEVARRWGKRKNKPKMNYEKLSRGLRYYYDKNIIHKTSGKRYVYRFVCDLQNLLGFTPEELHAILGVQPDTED

Another experiment addresses T5, ETV3 (UniProt P41162-2).
T5 sequence: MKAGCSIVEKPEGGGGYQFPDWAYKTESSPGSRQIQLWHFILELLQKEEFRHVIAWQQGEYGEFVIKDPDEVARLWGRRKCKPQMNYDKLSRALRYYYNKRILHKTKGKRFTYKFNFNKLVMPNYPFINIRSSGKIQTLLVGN

This is a selection; strong and weak results do not stand in their true shares. At the low end of the ranking the order means little.

GAGTTA: the binding signal with ELK1 was found to be 0.603; in the experiment with ELK3, 0.544; with SPIC it was 0.616; with ETS2 it was 0.6; with ETV3 it was 0.603.

In the case of CAAGGA, the binding signal in the experiment with ELK1 was 0.769; with ELK3 it was 0.77; with SPIC it was 0.749; in the experiment with ETS2 it was 0.751; in the experiment with ETV3 it was 0.769.

For AGAACG, the binding signal with ELK1 is 0.452; with ELK3, 0.523; with SPIC it was 0.457; with ETS2 it was 0.474; with ETV3, 0.431.

In the case of CGGCCA, the binding signal was determined as 0.825 with ELK1; 0.741 with ELK3; 0.726 in the experiment with SPIC; 0.73 with ETS2; 0.828 in the experiment with ETV3.

Turning to TCGGTA, the binding signal with ELK1 amounted to 0.553; in the experiment with ELK3, 0.616; with SPIC, 0.577; with ETS2 it was 0.598; with ETV3, 0.555.

Regarding ATCGGG, the binding signal in the experiment with ELK1 was found to be 0.472; with ELK3 it was 0.5; with SPIC, 0.482; with ETS2, 0.469; with ETV3, 0.494.

For the sequence GGGAAT, the binding signal is 0.809 with ELK1; 0.784 with ELK3; 0.856 with SPIC; 0.784 in the experiment with ETS2; 0.761 in the experiment with ETV3.

Regarding ATGAGA, the binding signal turned out to be 0.872 with ELK1; 0.919 with ELK3; 0.906 with SPIC; 0.93 with ETS2; 0.822 in the experiment with ETV3.

Turning to GCCAAA, the binding signal in the experiment with ELK1 was 0.87; in the experiment with ELK3, 0.84; in the experiment with SPIC, 0.98; in the experiment with ETS2 it was 0.94; with ETV3, 0.872.

Consider TGCGAG, for which the binding signal with ELK1 is 0.967; with ELK3 it was 0.921; with SPIC it was 0.944; with ETS2, 0.96; with ETV3, 0.893.

Take TATCGG: the binding signal came to 0.807 with ELK1; 0.874 in the experiment with ELK3; 0.906 with SPIC; 0.844 with ETS2; 0.86 with ETV3.

For the sequence GACCGT, the binding signal in the experiment with ELK1 was found to be 0.43; with ELK3, 0.346; with SPIC it was 0.433; in the experiment with ETS2, 0.445; with ETV3, 0.415.

Turning to ATCGGT, the binding signal stood at 0.694 with ELK1; 0.684 with ELK3; 0.729 with SPIC; 0.628 with ETS2; 0.665 with ETV3.

For GCCAGC, the binding signal with ELK1 worked out at 0.719; with ELK3 it was 0.789; with SPIC, 0.796; in the experiment with ETS2, 0.721; with ETV3, 0.755.

Take GCCAAG: the binding signal with ELK1 is 0.86; in the experiment with ELK3 it was 0.763; with SPIC it was 0.818; with ETS2 it was 0.771; in the experiment with ETV3 it was 0.884.

Consider CGTGAG, for which the binding signal worked out at 0.129 with ELK1; 0.105 with ELK3; 0.101 with SPIC; 0.128 in the experiment with ETS2; 0.125 with ETV3.

For the sequence AGACGG, the binding signal came out at 0.364 with ELK1; 0.392 with ELK3; 0.353 with SPIC; 0.384 with ETS2; 0.385 with ETV3.

Take CGGAGT: the binding signal in the experiment with ELK1 came to 0.311; in the experiment with ELK3 it was 0.327; in the experiment with SPIC, 0.348; with ETS2, 0.304; in the experiment with ETV3, 0.331.

For the sequence AGGGGG, the binding signal is 0.628 with ELK1; 0.544 in the experiment with ELK3; 0.626 in the experiment with SPIC; 0.603 with ETS2; 0.601 with ETV3.

Consider CGGCGG, for which the binding signal with ELK1 worked out at 0.669; in the experiment with ELK3 it was 0.696; with SPIC it was 0.62; with ETS2, 0.573; with ETV3, 0.601.

With CCAAGG, the binding signal with ELK1 turned out to be 0.988; with ELK3 it was 0.961; with SPIC it was 0.766; with ETS2 it was 0.895; with ETV3 it was 0.907.

On to CAGAGG, for which the binding signal with ELK1 worked out at 0.61; in the experiment with ELK3, 0.596; with SPIC it was 0.605; with ETS2 it was 0.678; with ETV3, 0.624.

As for AGTCGG, the binding signal in the experiment with ELK1 was 0.146; with ELK3, 0.157; in the experiment with SPIC, 0.181; in the experiment with ETS2, 0.144; with ETV3, 0.149.

Turning to GAGTCT, the binding signal with ELK1 was 0.403; with ELK3, 0.427; with SPIC it was 0.408; in the experiment with ETS2 it was 0.4; in the experiment with ETV3, 0.427.

On to GGCGCA, for which the binding signal with ELK1 stood at 0.598; with ELK3, 0.602; in the experiment with SPIC, 0.623; in the experiment with ETS2, 0.563; with ETV3, 0.578.

Regarding ACGGGG, the binding signal was found to be 0.689 with ELK1; 0.669 with ELK3; 0.693 with SPIC; 0.666 in the experiment with ETS2; 0.667 with ETV3.

For the sequence GAGTGA, the binding signal with ELK1 is 0.42; with ELK3 it was 0.407; in the experiment with SPIC, 0.342; with ETS2, 0.383; in the experiment with ETV3, 0.375.

As for GTCATG, the binding signal was determined as 0.916 with ELK1; 0.819 with ELK3; 0.619 in the experiment with SPIC; 0.815 with ETS2; 0.845 in the experiment with ETV3.

CAGCTG: the binding signal with ELK1 turned out to be 0.862; in the experiment with ELK3, 0.827; with SPIC it was 0.963; in the experiment with ETS2 it was 0.905; in the experiment with ETV3, 0.87.

Take CAGGCC: the binding signal was 0.723 with ELK1; 0.778 in the experiment with ELK3; 0.747 with SPIC; 0.746 with ETS2; 0.697 in the experiment with ETV3.
